# Assay: general procedure: Fmoc solid-phase peptide synthesis; Rink Amide Novagel; HBTU
# Settings: conjugation step
substance,measurement,value
Ac-Ala-Gly-Ser-Cys-Tyr-Cys-Ser-Gly-Pro-Pro-Arg-Phe-Glu-Cys-Trp-Cys-Tyr-Glu-Thr-GlU-Gly-Thr-Gly-Gly-Gly-Lys-NH2,conjugation yield,44%
